Data from publication PMC3566071.
These are yes or no findings as the source states them, for the method shown. For part of these data: Binding seen in cells or lysates may run through a third protein. Some results given as binding are weak or reduced against the parent protein; the word gives no strength.

By UniProt entry, the sequences of proteins in these tests, tags left out.
UniProt P09874: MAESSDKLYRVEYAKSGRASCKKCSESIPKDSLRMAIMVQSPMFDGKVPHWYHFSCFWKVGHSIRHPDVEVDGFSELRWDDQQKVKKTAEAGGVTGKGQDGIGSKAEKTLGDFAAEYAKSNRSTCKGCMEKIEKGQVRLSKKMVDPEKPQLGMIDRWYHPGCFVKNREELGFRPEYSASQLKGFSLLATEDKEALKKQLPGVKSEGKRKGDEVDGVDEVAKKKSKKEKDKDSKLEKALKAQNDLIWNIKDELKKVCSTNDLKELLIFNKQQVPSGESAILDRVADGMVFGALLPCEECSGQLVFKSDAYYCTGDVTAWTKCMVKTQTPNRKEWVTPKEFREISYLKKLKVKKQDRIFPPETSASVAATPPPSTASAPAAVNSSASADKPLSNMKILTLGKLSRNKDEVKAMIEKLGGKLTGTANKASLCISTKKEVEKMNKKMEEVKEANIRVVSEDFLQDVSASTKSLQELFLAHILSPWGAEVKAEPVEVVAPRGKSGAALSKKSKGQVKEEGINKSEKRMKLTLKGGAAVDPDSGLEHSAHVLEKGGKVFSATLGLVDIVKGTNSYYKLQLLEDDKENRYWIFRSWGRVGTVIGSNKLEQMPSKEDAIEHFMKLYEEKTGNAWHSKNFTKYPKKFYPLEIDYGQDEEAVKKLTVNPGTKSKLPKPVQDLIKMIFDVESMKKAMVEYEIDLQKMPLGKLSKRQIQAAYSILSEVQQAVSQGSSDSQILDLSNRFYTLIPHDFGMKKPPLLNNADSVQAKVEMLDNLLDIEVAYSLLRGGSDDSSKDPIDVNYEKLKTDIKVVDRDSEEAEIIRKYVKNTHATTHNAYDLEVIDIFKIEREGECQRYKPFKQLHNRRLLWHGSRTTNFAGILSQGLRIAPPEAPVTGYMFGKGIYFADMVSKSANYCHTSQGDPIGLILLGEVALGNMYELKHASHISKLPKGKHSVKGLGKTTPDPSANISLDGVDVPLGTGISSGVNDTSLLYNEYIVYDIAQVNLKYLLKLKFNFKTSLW

How the values were obtained:
[1] = biological target: T1, biotinylated recombinant full-length Ets-1 protein (human) (UniProt P14921); experiment: pull-down; biotinylated Ets-1 (50 ug) on streptavidin sepharose beads, incubated 1 h at 4 C with 1.5 mg pre-cleared MDA-MB-231 nuclear extract, treated or not with DNase I, 150 mM NaCl; bound proteins seen by SDS-PAGE with colloidal blue, band identified by MALDI-TOF, confirmed by Western blot (H-250); only the target purified
T1 sequence (chain, biotin (position not stated)): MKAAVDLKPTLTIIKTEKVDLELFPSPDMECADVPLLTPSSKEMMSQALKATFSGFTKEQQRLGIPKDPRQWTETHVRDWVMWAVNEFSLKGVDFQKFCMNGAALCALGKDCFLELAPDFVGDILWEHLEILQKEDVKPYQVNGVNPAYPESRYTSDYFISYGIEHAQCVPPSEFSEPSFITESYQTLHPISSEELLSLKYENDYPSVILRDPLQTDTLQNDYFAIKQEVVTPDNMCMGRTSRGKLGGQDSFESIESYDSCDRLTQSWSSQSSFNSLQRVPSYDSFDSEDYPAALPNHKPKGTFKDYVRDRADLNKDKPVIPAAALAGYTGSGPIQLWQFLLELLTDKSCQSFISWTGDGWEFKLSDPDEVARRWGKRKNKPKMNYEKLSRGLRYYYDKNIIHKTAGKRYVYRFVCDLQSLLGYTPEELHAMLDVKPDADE

[2] = biological target: T2, Ets-1, endogenous (human (endogenous in MDA-MB-231 and MG63)) (UniProt P14921); experiment: co-IP; nuclear extracts of MDA-MB-231 or MG-63 cells (1 mg), DNase I treated, 150 mM NaCl; C-20 anti-Ets-1 or H-250 anti-PARP-1 agarose conjugate overnight at 4 C; Western blot
T2 sequence: T1 sequence (chain, biotin (position not stated))

[3] = biological target: T1, biotinylated recombinant full-length Ets-1 protein (human); experiment: pull-down; biotinylated full-length Ets-1 (5 ug) or Ets-1 p27 (2.5 ug) on streptavidin sepharose beads, incubated 1 h at 4 C with recombinant PARP-1 (Trevigen); Western blot; both purified

Substance | binding [1] | binding [2] | binding [3]
poly(ADP-ribose) polymerase-1 (PARP-1), endogenous (from UniProt P09874 1-1014) (enzyme) | binds | binds | 
recombinant human PARP-1 enzyme, high specific activity grade (from UniProt P09874 1-1014) |  |  | binds
